In article PMC8759595:
Where a chain is given by its changes, count along the chain named. Results are given in words; binding and its absence hold for the method and conditions named. In cells and extracts the contact can be indirect. For part of these data: A result given as binding can be weak or reduced; the word gives no strength. Sequences can lack the tags named with a protein.

Legend:
FLAG-ACBD4 = target: T1, FLAG-ACBD4 (UniProt Q8NC06); experiment: co-IP; FLAG-ACBD4, FLAG-ACBD5 or FLAG-VAPB constructs in COS-7 lysates (50 mM Tris-HCl pH 7.4, 150 mM NaCl, 1 mM EDTA, 1% Triton X-100, phosphatase inhibitor), anti-FLAG M2 affinity gel; immunoblot; GSK3β coexpressed in Fig. 6 (Figs. S3 B and C, 6 A-C)
T1 sequence: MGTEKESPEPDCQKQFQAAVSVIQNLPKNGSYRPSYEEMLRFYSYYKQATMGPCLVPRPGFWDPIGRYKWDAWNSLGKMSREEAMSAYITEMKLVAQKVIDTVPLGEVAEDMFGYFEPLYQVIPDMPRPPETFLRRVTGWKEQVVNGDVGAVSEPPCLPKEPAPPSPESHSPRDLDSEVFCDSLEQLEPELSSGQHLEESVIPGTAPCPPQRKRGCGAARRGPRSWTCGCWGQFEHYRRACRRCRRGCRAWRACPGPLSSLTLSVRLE

FLAG-ACBD4 S183E = target: T2, FLAG-ACBD4 S183E (UniProt Q8NC06); experiment: as above
T2 sequence: T1 sequence with S183E

FLAG-ACBD5 (COS-7) = target: T3, FLAG-ACBD5 (COS-7) (UniProt Q5T8D3); experiment: co-IP; FLAG-ACBD4/5 constructs in COS-7 lysates not treated with λPP, precipitated with anti-FLAG M2 affinity gel 1 h at 4°C, eluted with 3x FLAG peptide; endogenous VAPB by immunoblot (Figs. 1 E and S1 A)
T3 sequence: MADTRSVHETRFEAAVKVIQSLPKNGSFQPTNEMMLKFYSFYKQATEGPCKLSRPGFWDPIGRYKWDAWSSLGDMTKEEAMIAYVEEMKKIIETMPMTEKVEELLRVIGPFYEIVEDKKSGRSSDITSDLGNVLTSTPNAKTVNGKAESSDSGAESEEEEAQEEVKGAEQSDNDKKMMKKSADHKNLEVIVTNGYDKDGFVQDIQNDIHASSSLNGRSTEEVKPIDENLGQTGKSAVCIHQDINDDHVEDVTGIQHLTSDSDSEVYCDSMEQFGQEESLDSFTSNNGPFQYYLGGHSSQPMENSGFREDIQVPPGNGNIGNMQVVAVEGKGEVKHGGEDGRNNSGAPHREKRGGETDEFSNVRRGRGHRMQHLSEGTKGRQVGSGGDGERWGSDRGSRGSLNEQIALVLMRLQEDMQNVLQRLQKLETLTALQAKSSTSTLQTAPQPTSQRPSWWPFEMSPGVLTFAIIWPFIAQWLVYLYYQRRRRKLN

binding (FLAG-ACBD4): binds
binding (FLAG-ACBD4 S183E): no binding
binding (FLAG-ACBD5 (COS-7)): binds
Substance: endogenous VAPB (COS-7 cells)
